Assay results: the supplement of paper PMC10735217
Where a name gives a salt, the structure may show the parent alone. This is one part of the list. Single values are uncertain here, since repeats match poorly.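 Human kidney-derived cells stably carry a construct in which eight TEAD-binding elements drive luciferase, measured by luminescence in a drug-repurposing library screen. A hit is any compound whose signal exceeds the plate mean by more than five robust Z scores.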

System: HEK293A TEAD-LUC reporter
Assay: TEAD-luciferase reporter activity (YAP activation), robust Z score vs plate; higher = stronger YAP/TEAD activation
Conditions: 24 h

Compound | TEAD-luciferase reporter activity (compound concentration: 200 nM) | TEAD-luciferase reporter activity (compound concentration: 2 uM) | TEAD-luciferase reporter activity (compound concentration: 10 uM)
CN(CCc1c[nH]c2ccccc12)c1ncnc2c1ncn2[C@@H]1O[C@H](C(=O)NC2CC2)[C@@H](O)[C@H]1O | inactive: 0.564 | inactive: -1.09 | inactive: 1.73
Cc1cc2ncc(NC(=O)Nc3ccc(F)cc3F)c(-c3ccccc3Cl)c2cc1C | inactive: 0.217 | inactive: 2.39 | inactive: 3.5
O=C(C1CCCN1C(=O)c1ccccc1)N1CCC(c2ccccc2)CC1 (stereo not drawn) | inactive: 0.624 |  | inactive: 2.96
CC(NC(=O)C(CS)C(C)c1ccccc1)C(=O)O (stereo not drawn) | inactive: 1.24 |  | inactive: -0.1
COC(=O)C(C)c1cccc(C(c2ccccc2)n2ccnc2)c1 (stereo not drawn) | inactive: 1.9 | inactive: -0.566 | inactive: -0.236
C[C@H](CNCCNC[C@@H](C)N1C(=O)c2cccc3cc([N+](=O)[O-])cc(c23)C1=O)N1C(=O)c2cccc3cc([N+](=O)[O-])cc(c23)C1=O [Bisnafide mesilate] | inactive: 0.854 | inactive: -1.71 | inactive: 1.38
N[C@H](CO)C(=O)O [D-Serine] | inactive: 2.07 | inactive: -0.404 | inactive: 0.162
CC(COc1ccccc1)N(CCCl)Cc1ccccc1 (stereo not drawn) [Dibenzyline63-92-3] | inactive: -1.38 |  | inactive: 0.735
CC(COc1ccccc1)N(CCCl)Cc1ccccc1 (stereo not drawn) [Phenoxybenzamine hydrochloride] |  | inactive: -1.17 | 
COc1ccc2[nH]cc(CCNC(=O)CN)c2c1 | inactive: 0.502 | inactive: -2.58 | inactive: 0.74
O=C(O)CCS[C@H](CC(=O)O)c1ccccc1CCCCCCCCc1ccccc1 | inactive: -1.17 | inactive: -1.43 | inactive: 0.344
CCNc1nc(OC)c(C(=O)NCC2CCCN2CC)nc1Cl (stereo not drawn) | inactive: -0.534 | inactive: -1.07 | inactive: -0.986
Cc1ccc2[nH]c(C(=O)O)c(NC(=O)c3ccccc3)c2c1 | active: 8.58 | inactive: -0.447 | inactive: 1.71
CC(C)(Oc1ccc(CCNC(=O)c2ccc(Cl)cc2)cc1)C(=O)O [bezafibrate] | inactive: -2.02 | inactive: -1.04 | active: 5.06
CCCC(=O)Nc1cc(-c2nn(C)c(=O)c3ccccc23)ccc1N1CCOCC1 | inactive: 0.401 | inactive: -0.111 | inactive: 0.487
CC(CO)(CO)NCc1ccc2c(c1)-c1cccc3cccc-2c13 | inactive: 1.09 | inactive: 2.53 | inactive: 1.15
CC1(C)COC(=O)N1c1nc(-c2ccc(C#N)cc2)cs1 | inactive: -1.19 | inactive: -1.82 | inactive: -0.69
C/C(=N\OCC(=O)OCCN(C)C)c1ccc(Cl)cc1 | inactive: -1.24 | inactive: 1.21 | inactive: -1.44
O=C1C(=O)C(CCC2CCC3CCCCC3C2)C(=O)c2ccccc21 (stereo not drawn) | inactive: -0.503 | inactive: -2.27 | inactive: -2.43
OC[C@H]1O[C@@H](c2ccc(Cl)c(Cc3ccc(OCCOC4CC4)cc3)c2)[C@H](O)[C@@H](O)[C@@H]1O [bexagliflozin] | inactive: -0.802 | inactive: 2.18 | inactive: 0.832
CC(C)NCC(O)COc1ccc(OCCOCC2CC2)cc1 (stereo not drawn) | inactive: -2.82 | inactive: -0.458 | inactive: 2.05
CC(=O)Oc1cc(OC(C)=O)c2c(c1)O[C@H](c1cc(OC(C)=O)c(OC(C)=O)c(OC(C)=O)c1)[C@H](OC(=O)c1cc(OC(C)=O)c(OC(C)=O)c(OC(C)=O)c1)C2 | inactive: -1.21 | inactive: -1.23 | inactive: -0.817
Cc1[nH]c2ccccc2c1C[C@@H](NC(=O)[C@@H](N)Cc1cnc[nH]1)C(=O)N[C@@H](C)C(=O)N[C@@H](Cc1c[nH]c2ccccc12)C(=O)N[C@H](Cc1ccccc1)C(=O)N[C@@H](CCCCN)C(N)=O [Examorelin] | inactive: -1.24 | inactive: -1.46 | inactive: -1.63
CCOc1ccc(S(=O)(=O)NC(=O)c2ccccc2)cc1 | inactive: -0.673 | inactive: -0.886 | inactive: -0.95
Cc1cn([C@H]2C[C@H](N=[N+]=[N-])[C@@H](CO[PH](=O)O)O2)c(=O)[nH]c1=O [Phosphazid] |  | inactive: 1.39 | 
Cc1cn([C@H]2C[C@H](N=[N+]=[N-])[C@@H](CO[PH](=O)O)O2)c(=O)[nH]c1=O | inactive: 1.32 |  | inactive: -0.863
O=P(O)(O)C(O)(Cc1cccnc1)P(=O)(O)O [risedronic acid sodium, delayed-release] |  | inactive: -1.82 | 

Compound | TEAD-luciferase reporter activity (compound concentration: 200 nM) | TEAD-luciferase reporter activity (compound concentration: 2 uM) | TEAD-luciferase reporter activity (compound concentration: 10 uM)
O=P(O)(O)C(O)(Cc1cccnc1)P(=O)(O)O [Risedronate] | inactive: 0.61 |  | inactive: 0.746
CCOC(=O)C(C)(C)Oc1ccc(Cl)cc1 [Clofibrate] | inactive: -1.08 | inactive: -0.47 | inactive: 0.00829
COCc1c(C(C)C)nc(C(C)C)c(/C=C/[C@@H](O)C[C@@H](O)CC(=O)O)c1-c1ccc(F)cc1 [cerivastatin sodium] | inactive: -1.49 | inactive: -1.81 | inactive: -2.54
CCCCN(CCC1CCCCC1)Cc1ccc(C(=O)N[C@H](CCSC)C(=O)O)c(-c2ccccc2C)c1 | inactive: 4.11 | inactive: -0.372 | inactive: 1.61
CCCCCCCCC[C@H](O)CC(=O)CCc1ccc(O)c(OC)c1 [10-Gingerol] | inactive: 0.612 | inactive: -0.4 | inactive: 1.32
CC(C)c1cc(Nc2cccc(C(=O)O)c2)cc(C(C)C)c1O | inactive: -2.74 | inactive: -0.655 | inactive: 1.71
O=C1NC(=O)C(C(=O)Nc2ccc(Cl)cc2)c2ccccc21 (stereo not drawn) | inactive: -0.408 | inactive: -0.217 | inactive: 0.541
CNC(=S)NS(=O)(=O)c1cc(CCNC(=O)c2cc(Cl)ccc2OC)ccc1OC [Clamikalant sodium] | inactive: -0.712 | inactive: -1.92 | inactive: 2.57
CCN1CCC(N(C(=O)c2ccc(-n3ccnc3)cc2)C2CC2)CC1 | inactive: -0.907 | inactive: 0.281 | inactive: 0.766
CCOC(=O)c1cc(C(=O)NC)nc(C(=O)NC)c1 | inactive: -1.05 | inactive: -1.44 | inactive: -0.98
N[C@@H]1CCCCN(c2c(F)cc3c(=O)c(C(=O)O)cn(C4CC4)c3c2Cl)C1 [besifloxacin hydrochloride] | inactive: 1.09 | inactive: -0.833 | inactive: -1.47
Nc1nc(/C(=N/O)C(=O)N[C@@H]2C(=O)N3C(C(=O)O)=C(/C=C4\CCN([C@@H]5CCNC5)C4=O)CS[C@H]23)ns1 [Ceftobiprole] | inactive: -0.376 |  | inactive: 0.959
NC(=O)C12NC(Cc3ccccc31)c1ccccc12 (stereo not drawn) | inactive: -1.29 | inactive: -0.376 | inactive: -0.117
CN=C(N)NCCC[C@H](NC(=O)[C@H](CC(C)C)NC(=O)NNC(=O)[C@H](Cc1ccccc1)NC(=O)[C@@H](NC(=O)[C@H](CC(N)=O)NC(=O)[C@@H](Cc1c[nH]c2ccccc12)NC(=O)[C@@H](Cc1ccc(O)cc1)NC(C)=O)[C@@H](C)O)C(=O)N[C@@H](Cc1c[nH]c2ccccc12)C(N)=O | inactive: -1.82 | inactive: 0.867 | inactive: 3.13
O=[N+]([O-])c1c(Cl)c(Cl)cc2nc(O)c(O)nc12 [Licostinel] | inactive: -2.45 | inactive: -1.57 | inactive: -0.914
Cn1cc(-c2nc(N[C@@H]3CCCC[C@@H]3N)c(F)c3c2C(=O)NC3)cn1 | inactive: 0.961 | inactive: 0.589 | inactive: 3.54
CCOC(=O)c1cccc(COc2ccc(N3C(N)=NC(N)=NC3(C)C)cc2Cl)c1 | inactive: -1.86 | inactive: -0.286 | inactive: -0.203
FC(F)c1nc2ccccc2n1-c1nc(N2CCOCC2)nc(N2CCOCC2)n1 | inactive: -1.81 | inactive: -2.16 | inactive: -0.686
CCc1nc(CC)nc(NS(=O)(=O)c2ccc(N)cc2)n1 | inactive: -0.271 | inactive: -1.58 | inactive: -1.06
OC[C@H]1O[C@@H](Oc2cc(O)cc(/C=C/c3ccc(O)cc3)c2)[C@H](O)[C@@H](O)[C@@H]1O | inactive: -0.771 |  | inactive: -1.57
OC[C@H]1O[C@@H](Oc2cc(O)cc(/C=C/c3ccc(O)cc3)c2)[C@H](O)[C@@H](O)[C@@H]1O [Polydatin] |  | inactive: 2.02 | 
CCOCCn1nc(C(=O)OC)c2nc(N(C)CC)nc(Nc3cc(C)ccn3)c21 | inactive: -0.736 | inactive: -1.01 | inactive: -0.985
COc1cccc2c1ccc1nc3cccc(C(=O)N[C@H](C)CN(C)C)c3nc12 | inactive: 0.419 | active: 6.84 | inactive: 1.42
Cc1nn(-c2cnc(OCC(C)C)c(Cl)c2)c2ccc(C(=O)NS(C)(=O)=O)cc12 | inactive: -1.37 |  | inactive: 0.23
CC(C1C(=O)Oc2ccccc2C1=O)C1C(=O)Oc2ccccc2C1=O (stereo not drawn) | inactive: -1.71 | inactive: 4.55 | inactive: 0.418
CC(=O)[C@H]1CC[C@H]2[C@@H]3CCC4=CC(=O)CC[C@]4(C)[C@H]3[C@H](O)C[C@]12C [stetaderm] | active: 6.52 |  | inactive: 0.342
CC(=O)[C@H]1CC[C@H]2[C@@H]3CCC4=CC(=O)CC[C@]4(C)[C@H]3[C@H](O)C[C@]12C [Stetaderm] |  | inactive: -1.28 | 

Random excerpt: 2 records from the list
Compound | TEAD-luciferase reporter activity (compound concentration: 200 nM) | TEAD-luciferase reporter activity (compound concentration: 2 uM) | TEAD-luciferase reporter activity (compound concentration: 10 uM)
CCOC(=O)C(C)(C)Oc1ccc(Cl)cc1 [Clofibrate] | inactive: -1.08 | inactive: -0.47 | inactive: 0.00829
CC(=O)[C@H]1CC[C@H]2[C@@H]3CCC4=CC(=O)CC[C@]4(C)[C@H]3[C@H](O)C[C@]12C [Stetaderm] |  | inactive: -1.28 | 
